Assay results: PubChem BioAssay AID298 (DTP/NCI, 2004)
The list is a part of this screen's results and no random one: its compounds were picked by chemical class. Not every dose and run of a compound is shown. T/C gives the treated animals as a percentage of the vehicle group. Schedule codes are those of the source, read here as Q, the interval in days (D) or hours (H), X, the number of doses. Some T/C values are marked as having no survivor count here; that says nothing about deaths at the dose. Some entries hold several experiments; their values stand side by side, smallest first.

Tested on: MX-1 breast xenograft, intrarenal, nude mice, tumor weight
Assay: NCI In Vivo Anticancer Drug Screen. Data for tumor model Human Mammary Carcinoma MX-1 Xenograft (intrarenal inoculation) in NU/NU BALB/C (nude) mice
Settings: T/C endpoint: mean tumor weight change, evaluated on day 11, higher T/C = larger tumour
Protocol: The antitumor activity of compounds was measured in mice bearing transplantable tumors. Survival or tumor size were measured and the results are expressed as the measurement made in the treated group (T) divided by the measurement made in the vehicle treated control group (C). The tumor model used in this assay is Human Mammary Carcinoma MX-1 Xenograft (intrarenal inoculation) in NU/NU BALB/C (nude) mice

With `CC(=O)OC[C@]12C[C@H](OC(=O)CC(C)C)C(C)=C[C@H]1O[C@@H]1[C@H](O)[C@@H](O)[C@@]2(C)[C@@]12CO2` the T/C (dose: 1.0 mg/kg/injection, schedule: Q04DX003 (sc), vehicle: saline) was 92 % of control [survivor count not shown], the T/C (dose: 2.0 mg/kg/injection, schedule: Q04DX003 (sc), vehicle: saline) was 73 % of control [survivor count not shown] and the T/C (dose: 4.0 mg/kg/injection, schedule: Q04DX003 (sc), vehicle: saline) was 72 % of control [survivor count not shown].
`CC(O)C1/C=C/C=C/C(=O)OC2CC3OC4C5OC5(C)C(O)CC4(COC(=O)C(O)C(C)CCO1)C2(C)C31CO1` (stereo not given) was tested, and the T/C (dose: 12.5 mg/kg/injection, schedule: Q04DX003 (ip), vehicle: saline + alcohol) was 90 % of control [survivor count not shown], the T/C (dose: 25.0 mg/kg/injection, schedule: Q04DX003 (ip), vehicle: saline + alcohol) was 97 % of control [survivor count not shown] and the T/C (dose: 50.0 mg/kg/injection, schedule: Q04DX003 (ip), vehicle: saline + alcohol) was 99 % of control [survivor count not shown].
With `CC1=C[C@H]2O[C@@H]3C[C@H]4OC(=O)/C=C\C=C\[C@H]([C@@H](C)O)OC[C@H](O)[C@@]5(C)O[C@@H]5C(=O)OC[C@@]2(C[C@H]1O)[C@]4(C)C31CO1` (stereo not given in full) the T/C (dose: 0.62 mg/kg/injection, schedule: Q04DX003 (ip), vehicle: Klucel (hydroxypropylcellulose) (HPC)) was 75 [survivor count not shown] and 92 % of control [survivor count not shown], the T/C (dose: 1.25 mg/kg/injection, schedule: Q04DX003 (ip), vehicle: Klucel (hydroxypropylcellulose) (HPC)) was 61 [survivor count not shown] and 73 % of control [survivor count not shown] and the T/C (dose: 2.5 mg/kg/injection, schedule: Q04DX003 (ip), vehicle: Klucel (hydroxypropylcellulose) (HPC)) was 36 [survivor count not shown], 39 [survivor count not shown], 53 % of control [survivor count not shown]. The T/C (dose: 5.0 mg/kg/injection, schedule: Q04DX003 (ip), vehicle: Klucel (hydroxypropylcellulose) (HPC)) was 36 % of control [survivor count not shown].
